Conditions in all cases: yeast three-hybrid, YBZ-1, SC-Leu-His + 0.5 mM 3-AT, 4 days
For test [1], the target named is T1, PUM1 PUF domain R1-CFK S863C + R864F + Q867K (Homo sapiens) (UniProt Q14671).
T1 sequence: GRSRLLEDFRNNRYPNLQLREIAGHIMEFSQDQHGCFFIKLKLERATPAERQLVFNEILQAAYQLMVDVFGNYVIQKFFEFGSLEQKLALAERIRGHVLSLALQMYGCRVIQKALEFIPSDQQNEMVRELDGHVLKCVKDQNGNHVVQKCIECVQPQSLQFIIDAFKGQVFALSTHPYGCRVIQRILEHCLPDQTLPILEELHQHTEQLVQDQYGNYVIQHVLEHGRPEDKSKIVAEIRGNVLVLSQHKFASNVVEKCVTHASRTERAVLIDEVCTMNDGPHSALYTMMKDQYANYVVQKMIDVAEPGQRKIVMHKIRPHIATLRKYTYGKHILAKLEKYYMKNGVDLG

The target of test [2] is T2, PUM1 PUF domain R1-GCK S863G + R864C + Q867K (Homo sapiens) (UniProt Q14671).
T2 sequence: T1 sequence with C36G, F37C

Test [3] has as its target T3, PUM1 PUF domain R1-GCR S863G + R864C + Q867R (Homo sapiens) (UniProt Q14671).
T3 sequence: T1 sequence with C36G, F37C, K40R

Test [4] addresses T4, PUM1 PUF domain R1-GVR S863G + R864V + Q867R (Homo sapiens) (UniProt Q14671).
T4 sequence: T1 sequence with C36G, F37V, K40R

In test [5] the target is T5, PUM1 PUF domain R1-KCS S863K + R864C + Q867S (UniProt Q14671).
T5 sequence: T1 sequence with C36K, F37C, K40S

Test [6] deals with T6, PUM1 PUF domain R1-LWK S863L + R864W + Q867K (UniProt Q14671).
T6 sequence: T1 sequence with C36L, F37W

Test [7] has as its target T7, PUM1 PUF domain R1-MPR S863M + R864P + Q867R (Homo sapiens) (UniProt Q14671).
T7 sequence: T1 sequence with C36M, F37P, K40R

Test [8] addresses T8, PUM1 PUF domain R1-NFV S863N + R864F + Q867V (UniProt Q14671).
T8 sequence: T1 sequence with C36N, K40V

The target in test [9] is T9, PUM1 PUF domain R1-NIG S863N + R864I + Q867G (UniProt Q14671).
T9 sequence: T1 sequence with C36N, F37I, K40G

In test [10] the target is T10, PUM1 PUF domain R1-NIS S863N + R864I + Q867S (UniProt Q14671).
T10 sequence: T1 sequence with C36N, F37I, K40S

Test [11] concerns the target T11, PUM1 PUF domain R1-QFR S863Q + R864F + Q867R (UniProt Q14671).
T11 sequence: T1 sequence with C36Q, K40R

The target in test [12] is T12, PUM1 PUF domain R1-QLR S863Q + R864L + Q867R (Homo sapiens) (UniProt Q14671).
T12 sequence: T1 sequence with C36Q, F37L, K40R

The target of test [13] is T13, PUM1 PUF domain R1-RFI S863R + R864F + Q867I (UniProt Q14671).
T13 sequence: T1 sequence with C36R, K40I

For test [14], the target named is T14, PUM1 PUF domain R1-RGV S863R + R864G + Q867V (Homo sapiens) (UniProt Q14671).
T14 sequence: T1 sequence with C36R, F37G, K40V

For test [15], the target named is T15, PUM1 PUF domain R1-RKL S863R + R864K + Q867L (Homo sapiens) (UniProt Q14671).
T15 sequence: T1 sequence with C36R, F37K, K40L

The target in test [16] is T16, PUM1 PUF domain R1-RLE S863R + R864L + Q867E (Homo sapiens) (UniProt Q14671).
T16 sequence: T1 sequence with C36R, F37L, K40E

The target in test [17] is T17, PUM1 PUF domain R1-RRM S863R + Q867M (Homo sapiens) (UniProt Q14671).
T17 sequence: T1 sequence with C36R, F37R, K40M

For test [18], the target named is T18, PUM1 PUF domain R1-RSV S863R + R864S + Q867V (Homo sapiens) (UniProt Q14671).
T18 sequence: T1 sequence with C36R, F37S, K40V

The target in test [19] is T19, PUM1 PUF domain R1-YSR S863Y + R864S + Q867R (UniProt Q14671).
T19 sequence: T1 sequence with C36Y, F37S, K40R

For test [20], the target named is T20, PUM1 PUF domain R1-YWR S863Y + R864W + Q867R (Homo sapiens) (UniProt Q14671).
T20 sequence: T1 sequence with C36Y, F37W, K40R

Positions count from the first letter of the chain named. Some of the results follow. For some assays here: At the low end of the ranking the order means little.

Take “GGCUAGAACUAGUGGAUCCCCCGGCGCCCGGCGGCUCGAGCCCGGGUAAGUGUAAAUGGUCUGCAUGCCGCCGGGCGCCAUGCCUGCAGGUCGACUCUAGAAAACAUG”: the binding signal (log2 enrichment (interaction score)) in test [1] is 0.08; in test [2], 0.26; in [3], 0.78; in [4], 1.24; in test [5], -8.13; in test [6], -5.55. The binding signal (log2 enrichment (interaction score)) was 0.06 in test [7]; -3.34 in [8]; < -6.56 in test [9]; -2.23 in test [10]; -2.13 in test [11]; 0.26 in [12]. In addition, the binding signal (log2 enrichment (interaction score)) in test [13] was < -6.36; in [14] it was -0.01; in test [15], 0.78; in [16], 0.82; in [17] it was 0.89; in [18], 0.74. Moreover, the binding signal (log2 enrichment (interaction score)) in [19] was -6.36; in test [20] it was 0.26.

These data come from article PMC8384837.
